Results taken from publication PMC9838815.
These are yes or no findings as the source states them, for the method shown.

Sequences of proteins named here, by UniProt entry; tags and fusion partners are left off. Residues count along the entry.
UniProt P24627, residues 20-708: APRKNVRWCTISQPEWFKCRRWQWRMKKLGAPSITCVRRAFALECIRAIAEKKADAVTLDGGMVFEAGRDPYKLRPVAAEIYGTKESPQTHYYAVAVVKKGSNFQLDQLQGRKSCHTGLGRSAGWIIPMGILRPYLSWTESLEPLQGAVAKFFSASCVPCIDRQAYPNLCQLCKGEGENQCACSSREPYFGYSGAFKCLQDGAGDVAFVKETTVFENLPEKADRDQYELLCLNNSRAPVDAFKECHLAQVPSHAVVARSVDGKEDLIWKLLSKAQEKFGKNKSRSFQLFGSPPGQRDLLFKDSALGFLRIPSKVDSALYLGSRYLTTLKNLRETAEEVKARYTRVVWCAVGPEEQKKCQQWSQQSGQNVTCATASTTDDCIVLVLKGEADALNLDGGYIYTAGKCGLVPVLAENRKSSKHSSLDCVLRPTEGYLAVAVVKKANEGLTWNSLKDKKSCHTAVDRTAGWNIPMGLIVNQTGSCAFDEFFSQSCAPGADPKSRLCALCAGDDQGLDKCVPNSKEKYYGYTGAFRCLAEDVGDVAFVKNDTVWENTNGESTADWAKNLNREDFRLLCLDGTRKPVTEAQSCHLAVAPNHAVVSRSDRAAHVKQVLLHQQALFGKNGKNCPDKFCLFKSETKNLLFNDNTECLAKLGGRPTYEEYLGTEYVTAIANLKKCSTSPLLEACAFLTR
UniProt Q29443, residues 20-704: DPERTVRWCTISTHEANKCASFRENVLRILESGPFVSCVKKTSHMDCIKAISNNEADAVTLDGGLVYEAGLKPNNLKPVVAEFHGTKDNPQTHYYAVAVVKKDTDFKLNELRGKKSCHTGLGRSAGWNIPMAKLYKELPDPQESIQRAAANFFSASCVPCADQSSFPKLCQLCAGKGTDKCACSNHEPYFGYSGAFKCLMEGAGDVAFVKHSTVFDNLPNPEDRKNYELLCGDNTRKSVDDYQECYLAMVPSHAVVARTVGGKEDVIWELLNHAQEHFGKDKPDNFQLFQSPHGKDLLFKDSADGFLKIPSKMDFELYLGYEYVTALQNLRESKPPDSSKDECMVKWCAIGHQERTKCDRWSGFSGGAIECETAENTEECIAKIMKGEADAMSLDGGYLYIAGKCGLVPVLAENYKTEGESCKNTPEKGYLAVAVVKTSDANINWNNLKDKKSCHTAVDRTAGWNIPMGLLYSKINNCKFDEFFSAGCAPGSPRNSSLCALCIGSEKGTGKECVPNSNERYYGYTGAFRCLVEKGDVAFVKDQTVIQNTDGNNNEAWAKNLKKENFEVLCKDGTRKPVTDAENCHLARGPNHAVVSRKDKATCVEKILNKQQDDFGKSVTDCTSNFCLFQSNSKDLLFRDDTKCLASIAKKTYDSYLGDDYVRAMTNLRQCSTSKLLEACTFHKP
UniProt P02769, residues 25-607: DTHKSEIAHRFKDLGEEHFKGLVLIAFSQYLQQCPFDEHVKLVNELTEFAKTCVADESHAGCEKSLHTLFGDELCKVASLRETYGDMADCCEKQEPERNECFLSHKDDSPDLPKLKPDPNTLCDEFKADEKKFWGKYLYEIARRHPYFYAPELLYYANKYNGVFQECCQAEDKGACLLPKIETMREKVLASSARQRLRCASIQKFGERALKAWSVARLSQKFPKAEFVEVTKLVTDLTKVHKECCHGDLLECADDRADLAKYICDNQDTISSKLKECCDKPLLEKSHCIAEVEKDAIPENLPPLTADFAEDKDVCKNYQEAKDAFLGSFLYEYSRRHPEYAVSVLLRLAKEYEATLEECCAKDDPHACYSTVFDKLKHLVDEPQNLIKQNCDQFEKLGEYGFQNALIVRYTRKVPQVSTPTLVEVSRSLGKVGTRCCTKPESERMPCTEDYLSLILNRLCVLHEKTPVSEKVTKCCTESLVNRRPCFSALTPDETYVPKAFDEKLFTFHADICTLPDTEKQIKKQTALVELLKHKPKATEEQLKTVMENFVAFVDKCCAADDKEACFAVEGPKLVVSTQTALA
UniProt P02789, residues 20-705: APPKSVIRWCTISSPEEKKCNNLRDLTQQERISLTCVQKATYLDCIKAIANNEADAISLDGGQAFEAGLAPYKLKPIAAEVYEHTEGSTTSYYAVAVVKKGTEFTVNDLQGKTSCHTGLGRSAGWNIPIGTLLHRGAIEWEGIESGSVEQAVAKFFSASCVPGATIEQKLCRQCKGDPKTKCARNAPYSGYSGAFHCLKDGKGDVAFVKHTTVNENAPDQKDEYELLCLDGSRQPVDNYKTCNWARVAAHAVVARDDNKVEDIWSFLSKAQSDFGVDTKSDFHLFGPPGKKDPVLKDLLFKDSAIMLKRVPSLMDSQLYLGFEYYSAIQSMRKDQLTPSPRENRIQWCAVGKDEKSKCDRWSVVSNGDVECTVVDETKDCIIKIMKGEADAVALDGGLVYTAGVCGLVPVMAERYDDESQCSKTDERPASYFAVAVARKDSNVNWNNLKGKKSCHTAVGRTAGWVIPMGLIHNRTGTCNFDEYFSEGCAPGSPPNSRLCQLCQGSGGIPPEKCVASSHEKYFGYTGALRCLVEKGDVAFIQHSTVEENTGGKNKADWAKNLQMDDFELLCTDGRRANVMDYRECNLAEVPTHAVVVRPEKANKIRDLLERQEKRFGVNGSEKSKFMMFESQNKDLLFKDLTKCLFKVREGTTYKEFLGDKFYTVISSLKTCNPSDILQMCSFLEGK
UniProt P11974: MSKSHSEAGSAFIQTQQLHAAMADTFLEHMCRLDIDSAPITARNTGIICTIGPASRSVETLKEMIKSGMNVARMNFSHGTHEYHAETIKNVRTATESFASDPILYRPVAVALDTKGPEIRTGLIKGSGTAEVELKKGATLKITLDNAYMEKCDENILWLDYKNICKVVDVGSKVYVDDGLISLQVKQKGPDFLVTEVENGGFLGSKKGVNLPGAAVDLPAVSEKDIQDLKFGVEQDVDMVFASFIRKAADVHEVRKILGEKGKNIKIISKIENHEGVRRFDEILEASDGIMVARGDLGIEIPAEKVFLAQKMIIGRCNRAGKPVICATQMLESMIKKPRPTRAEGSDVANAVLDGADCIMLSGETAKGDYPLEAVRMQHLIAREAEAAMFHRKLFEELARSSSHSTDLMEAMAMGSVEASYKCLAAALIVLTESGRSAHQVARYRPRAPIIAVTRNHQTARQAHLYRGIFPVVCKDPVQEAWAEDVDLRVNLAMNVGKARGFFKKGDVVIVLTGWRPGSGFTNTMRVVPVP
UniProt P00563: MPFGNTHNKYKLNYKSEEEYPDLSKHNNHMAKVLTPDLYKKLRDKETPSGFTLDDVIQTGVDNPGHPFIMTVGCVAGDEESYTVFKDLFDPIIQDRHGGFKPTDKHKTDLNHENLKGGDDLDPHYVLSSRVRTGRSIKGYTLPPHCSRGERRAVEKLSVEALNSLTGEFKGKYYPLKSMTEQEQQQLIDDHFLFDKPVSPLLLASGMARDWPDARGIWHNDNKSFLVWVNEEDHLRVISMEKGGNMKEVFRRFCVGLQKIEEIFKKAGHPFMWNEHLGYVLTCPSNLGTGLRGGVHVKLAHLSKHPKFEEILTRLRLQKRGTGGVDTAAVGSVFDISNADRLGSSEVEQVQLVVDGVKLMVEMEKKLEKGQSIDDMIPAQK

Legend:
Experiment in all cases: condition: 0.25 mg/mL per protein, corresponding to approximately 3–6 μM; cross-linking; mixture of eight model proteins in solution, 2 mg/mL total (0.25 mg/mL per protein), citrate-phosphate buffer, eight pH conditions (pH 4.0-7.5), 1 mM DSS (d0/d12) for 30 min at 37 °C; Lys-C/trypsin digest, LC-MS/MS, xQuest (score ≥ 25); both purified
[1] = biological target: bovine lactotransferrin (bovine) (UniProt P24627)
[2] = biological target: bovine serotransferrin (bovine) (UniProt Q29443)
[3] = biological target: bovine serum albumin (bovine) (UniProt P02769)
[4] = biological target: chicken ovotransferrin (chicken) (UniProt P02789)
[5] = biological target: T1, rabbit fructose-bisphosphate aldolase A (rabbit) (UniProt P00883)
T1 sequence: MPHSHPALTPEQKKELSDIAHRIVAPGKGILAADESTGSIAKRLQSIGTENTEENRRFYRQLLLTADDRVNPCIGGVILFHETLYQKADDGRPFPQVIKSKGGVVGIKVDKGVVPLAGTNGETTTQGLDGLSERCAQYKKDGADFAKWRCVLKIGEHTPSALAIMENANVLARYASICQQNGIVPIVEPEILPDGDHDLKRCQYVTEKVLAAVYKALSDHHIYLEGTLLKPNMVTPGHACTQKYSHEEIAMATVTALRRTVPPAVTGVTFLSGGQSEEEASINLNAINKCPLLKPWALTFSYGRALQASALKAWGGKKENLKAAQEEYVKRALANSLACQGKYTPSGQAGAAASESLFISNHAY

[6] = biological target: rabbit pyruvate kinase (rabbit) (UniProt P11974)

| binding [1] | binding [2] | binding [3] | binding [4] | binding [5] | binding [6] | Substance |
| --- | --- | --- | --- | --- | --- | --- |
| – | no binding | – | – | – | – | bovine lactotransferrin (from UniProt P24627 20-708) |
| no binding | no binding | – | – | – | – | rabbit pyruvate kinase (from UniProt P11974 1-531) (enzyme) |

The next lines start with the substance.

| Substance | binding [1] | binding [2] | binding [3] | binding [4] | binding [5] | binding [6] |
| --- | --- | --- | --- | --- | --- | --- |
| rabbit creatine kinase M-type (from UniProt P00563 1-381) (enzyme) | no binding | no binding | no binding | no binding | no binding | no binding |
| chicken ovotransferrin (from UniProt P02789 20-705) | no binding | no binding | – | – | – | no binding |
| bovine serum albumin (from UniProt P02769 25-607) | no binding | no binding | – | no binding | – | no binding |
